Experimental findings from PubChem BioAssay AID1508600 (Functional Genomics Laboratory (NCATS/FGL), 2020) are described below.

In all, about 53,000 sequences went through this assay and about 3,700 (7%) were called active.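 The calls were made as follows: active = gene knockdowns whose robust z-score for IL-1 alpha signal is at least 2 or at most -2, so actives lie on both sides; inactive = the rest.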 Some of the results follow.

The nature of the assay: Components of the Cytosolic LPS Sensing Pathway: Gene Identification via Genome-wide siRNA Screen.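 Also: robust z of the log signal after scaling to non-targeting control siRNA wells of the plate.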 The following applies: RAW264.7 macrophages, IL-1a HTRF, actives lie on both sides, screened at 100 nM (by protocol), cells primed 5 h with Pam3CSK4 first. The method in brief:
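IL-1a HTRF of supernatants after 24 hour LipidA transfection of Pam3CSK4-primed (5 hours) RAW264.7 cells, 48h post-siRNA transfection (100 nM). Scores: percent of plate negative-control median, then log-based robust z-score.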
Take “CGCGCAGAUGCACCAGAUUTT against 2610028H24Rik”: the z-score was inactive: 1.12.

For the sequence CCUUUUAUCACAUUCGGAGTT against Rnf133, the z-score was inactive: 0.141.

As to GCAUGGUAGUUCUUUAGCATT against Xcr1, the z-score was inactive: -0.173.

For the sequence CGAGUCAAGUGUGUGAACGTT against Ascl3, the z-score is inactive: -0.067.

As for GGAGGAGUUGCACCUCAUCTT against Cdk18, the z-score is inactive: -0.675.

Regarding CCCACUAUCAACACUGGUATT against Gm609, the z-score is inactive: -0.0123.

Regarding GCCAAUAGCAUCUGUGGACTT against Olfr566, the z-score was inactive: -1.85.

For GGUCCUGAAAAAAGUGAUUTT against Eri1, the z-score is inactive: -0.0192.

In the case of CAAAGCAUGUAACAUCCAATT against Cfhr2, the z-score is inactive: 0.591.

Take “AAUCUAUUAGGUUAGAGGATT against 9630041A04Rik”: the z-score is inactive: 0.697.

For the sequence GGCUUUGCACUCAGCGUACTT against Inpp5k, the z-score was inactive: -0.824.

In the case of AAAGAAACUAGAGAGAGCATT against LOC434320, the z-score is inactive: 0.327.

Take ACUCCUUCCGAGUUGUUGGTT against Vasp: the z-score was inactive: -0.345.

On to GGAACAGAGAAGCUACUAATT against Ddx3x, for which the z-score is inactive: 1.55.

As to “CUCUGCUUUUUUCCUGUGCTT against D130007C19Rik”, the z-score is inactive: 0.558.

GGCUUCCUAAGGGAUAAGATT against Slc16a11: the z-score is inactive: -1.1.

Regarding GGAUGAGUUUCAGAACAGUTT against Ifit2, the z-score is inactive: -0.263.

Regarding GGGCUAUGUCCACAGCUUUTT against Il27, the z-score is inactive: -0.475.

For the sequence GGUACUGGCAUGGUGACAATT against Mmp11, the z-score is active: -2.52.

Consider GGAUGAAGAGAAAGACAAGTT against Zscan21, for which the z-score is inactive: 0.809.

Regarding GGAAACCAGAAAGAUCAUGTT against Phkg1, the z-score was inactive: -0.177.

On to GCCAACAGUAACGGUAUUGTT against Patz1, for which the z-score is active: -2.04.

Turning to CGGGCUGGAAGAAAUCUCUTT against Rhox3a, the z-score was inactive: 0.771.

In the case of GCACUUCCGAACAUCUAGCTT against Mau2, the z-score is inactive: -1.1.

Consider CGUGUAGACUUUGAGACGUTT against Myl6b, for which the z-score was inactive: 0.202.

As to GCUCGAACAUAGCAGCAAGTT against BC061195, the z-score is active: -2.11.

Turning to GGAUCUUAUGCGAAGCCGCTT against Ccdc60, the z-score is inactive: 0.537.

With GGAAGGGUUUGUUUGUUUATT against Nkiras1, the z-score was inactive: 1.55.

As to GCUUUGCUAAGCCUAAAAGTT against Zbtb44, the z-score was inactive: -1.12.

Turning to GCAUGACUCUCAGGUCAAGTT against Lman2, the z-score is inactive: 1.54.

Consider GGUAUUGACAGGGAUCUGATT against Limk1, for which the z-score is inactive: 1.19.

In the case of CCUGCUACCAGAUGAACCATT against Man1b1, the z-score was inactive: -1.39.

Take GGCCAAAGACUUUUGGAAUTT against Rgs1: the z-score was inactive: 0.72.

As to GGAAGCUCUAAAAAGAGUGTT against Olfr23, the z-score was inactive: -1.14.

As for GGAAUUGGUUCAUUUGGUUTT against Unkl, the z-score was inactive: 0.84.

As for GCGGUAUGGGAAGCUAAAGTT against Rhbdf1, the z-score is inactive: 0.617.

In the case of GGAGACACCCGAAAUACAUTT against Adam18, the z-score is inactive: 1.49.

Take CGGAGUUGAAGUCACAUACTT against Il20ra: the z-score was inactive: -0.13.

As to GGCGACACAUUAAAAUAGUTT against Mepe, the z-score was active: 2.19.

Consider GGUUAUGAAACUUGGAAAUTT against Cdkn2c, for which the z-score is inactive: -0.192.

On to GCUGUUCCUCUUUCUUUCUTT against Olfr522, for which the z-score was inactive: 0.315.

For the sequence GGUAACAAACUACAUUUGCTT against Pcdhb16, the z-score was active: 2.7.

For the sequence GGGAUUGGGUAUUUUUUAGTT against B4galt1, the z-score was inactive: -0.432.

With CCAUAUCCAAUAAUAGAGATT against Trip12, the z-score was inactive: 0.972.

Take GGAAAUUUUGAACCUGACATT against Setd3: the z-score is inactive: 0.125.

Regarding GGACUGAUAGAGGACUUCCTT against Bloc1s6, the z-score was inactive: -0.56.

CGAUGAAAUGAUAUGCAAATT against Kdm5b: the z-score was inactive: 0.605.

Regarding GGAUGGUGACAUCAUUCCGTT against Tha1, the z-score was inactive: -1.43.

For GCCUUGGAUAAACCAGACGTT against Mfsd4a, the z-score was active: -2.38.

GGACUUUAAGUGAGAAUCUTT against BC106179: the z-score is inactive: 0.0661.

GGACCAACACACAACAUCCTT against Slc25a23: the z-score is inactive: -0.301.

Take GGGACACCCUUUGAAGAUGTT against Ube2b: the z-score is inactive: -0.314.

Turning to GGAAAGAAUUGGAUGACUATT against Chil6, the z-score is inactive: 0.775.

Consider GGACAAGUACCAAGUCAAUTT against Plaat3, for which the z-score is inactive: 1.37.

As to GGUGGACAUCUUGGACAUUTT against Amn, the z-score is inactive: 1.85.

GCCAAAGACGAUUAUCGAATT against Hook3: the z-score is inactive: -0.299.

In the case of CCCUCUUCUGUAUGCAUCGTT against Olfr262, the z-score was inactive: -1.14.

On to GGCUACAUGAGAAGCACAGTT against Disc1, for which the z-score was inactive: 1.64.

Take GGUCUAAAACUCUCAUAAUTT against Sfmbt1: the z-score was inactive: -1.24.

As to “GGUGCUCCACAACACCUAUTT against 2510039O18Rik”, the z-score is active: 2.05.

GGAAGAUGAUGAUAAUGAGTT against Cdv3: the z-score is inactive: -0.317.

As for GGAAGAAUGCCACAAGGGATT against Irx6, the z-score was inactive: 1.71.

Regarding GCUUACCUUGGACAAAUGUTT against Mfsd14a, the z-score was inactive: -1.17.

For the sequence GGGUGCUGAAAUGAAGCAUTT against Osbpl1a, the z-score was inactive: 0.518.

In the case of GCAAGAACUUCGCUGCUCUTT against Smdt1, the z-score is inactive: 1.74.

As to GGAGAUUGACAUCCUGCCUTT against Pdk4, the z-score was inactive: 1.71.

GGCAGUCACUGGCUAAAUGTT against Ugt2a1: the z-score was active: 2.13.

For the sequence UGAUAAGGCAGCCGUAUCCTT against Amelx, the z-score was inactive: 0.0399.
